# PubChem BioAssay AID1224830 | NIAID | 2016
# Test: 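Host factors that control LPS-induced TNF expression in human macrophages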 (primary screen)
# Cells: human THP-1 monocytic leukaemia cells, TNF dual-luciferase reporter clone, PMA-differentiated to macrophage-like cells
# Knock-down reagent: siRNA pool against human genes, 50 nM
# Timing: LPS for 4 h, given about 3 days after siRNA transfection
# Conditions: bacterial LPS (TLR4 ligand), 10 ng/ml
# Read-out: 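TNF firefly reporter luminescence divided by renilla, normalised to the plate median, then turned into a robust z-score for each replicate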
# Reading the numbers: TNF reporter robust z-score: higher = stronger TNF reporter response to LPS
# Hit rule: 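a well is active when its z-score exceeds 2.8 or falls below -1.5; control wells carry no call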
# Here is a random part of about 18,000 reagents tested. About 2,900 of all reagents (16%) were called active. 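Calls are made per well; low scores hint the gene aids the LPS response, high scores that it dampens it.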 Repeated entries: four replicate wells of each siRNA pool. Reagent sequences are not shown.
The first 6 entries, ahead of the listing:
gene knocked down,TNF reporter robust z-score,Call
CSPG4,-0.1,inactive
CSPG4,0.17,inactive
CSPG4,0.14,inactive
CSPG4,0.23,inactive
PAXIP1,-0.12,inactive
PAXIP1,0.04,inactive

The listing, from the start:
gene knocked down,TNF reporter robust z-score,Call
CSPG4,-0.1,inactive
CSPG4,0.17,inactive
CSPG4,0.14,inactive
CSPG4,0.23,inactive
PAXIP1,-0.12,inactive
PAXIP1,0.04,inactive
PAXIP1,-0.76,inactive
PAXIP1,-1.11,inactive
ZNF497,-0.59,inactive
ZNF497,-0.36,inactive
ZNF497,-1.23,inactive
ZNF497,-0.9,inactive
FAM174A,2.74,inactive
FAM174A,0.6,inactive
FAM174A,-1.32,inactive
FAM174A,-0.4,inactive
SIGLEC8,2.39,inactive
SIGLEC8,0.04,inactive
SIGLEC8,4.16,active
SIGLEC8,8.4,active
ATP10B,0.14,inactive
ATP10B,1.41,inactive
ATP10B,1.78,inactive
ATP10B,2.54,inactive
UTP18,-0.83,inactive
UTP18,-0.57,inactive
UTP18,-0.99,inactive
UTP18,-0.41,inactive
NIPAL1,-0.7,inactive
NIPAL1,-1.29,inactive
NIPAL1,0.13,inactive
NIPAL1,-0.35,inactive
KRTAP5-2,-0.06,inactive
KRTAP5-2,-1.41,inactive
KRTAP5-2,-0.56,inactive
KRTAP5-2,0.51,inactive
MEAK7,-0.76,inactive
MEAK7,-0.83,inactive
MEAK7,-0.69,inactive
MEAK7,0,inactive
PPP4R1,1.26,inactive
PPP4R1,1.57,inactive
PPP4R1,-0.67,inactive
PPP4R1,-0.71,inactive
DPY19L4,0.77,inactive
DPY19L4,1.18,inactive
DPY19L4,-0.15,inactive
DPY19L4,0.81,inactive
